Source: article PMC9881158, “The DEAD-box protein Dbp6 is an ATPase and RNA annealase interacting with the peptidyl transferase center (PTC) of the ribosome” (Nucleic Acids Research, 2023)
Numbering of substitutions follows the chain as printed. For at least one entry, the source does not settle the construct or the ends of the probe. At least one verdict rests on a figure or table, not on a statement of the authors. Protein sequences can lack the tags named with them.

Columns and labels:
Assay in all cases: EMSA
Details in all cases: 5 mM ATP, binding unchanged; EMSA: 1 nM 32P-RNA, RNasin, 15 min at 30 C, native PAGE in TBE; recombinant protein; protein details: N-terminal His6; label: 32P on ss38-mer
[1] = biological target: T1, Dbp6 M-I K240A (Saccharomyces cerevisiae) (UniProt P53734)
T1 sequence (looked up, limits assumed): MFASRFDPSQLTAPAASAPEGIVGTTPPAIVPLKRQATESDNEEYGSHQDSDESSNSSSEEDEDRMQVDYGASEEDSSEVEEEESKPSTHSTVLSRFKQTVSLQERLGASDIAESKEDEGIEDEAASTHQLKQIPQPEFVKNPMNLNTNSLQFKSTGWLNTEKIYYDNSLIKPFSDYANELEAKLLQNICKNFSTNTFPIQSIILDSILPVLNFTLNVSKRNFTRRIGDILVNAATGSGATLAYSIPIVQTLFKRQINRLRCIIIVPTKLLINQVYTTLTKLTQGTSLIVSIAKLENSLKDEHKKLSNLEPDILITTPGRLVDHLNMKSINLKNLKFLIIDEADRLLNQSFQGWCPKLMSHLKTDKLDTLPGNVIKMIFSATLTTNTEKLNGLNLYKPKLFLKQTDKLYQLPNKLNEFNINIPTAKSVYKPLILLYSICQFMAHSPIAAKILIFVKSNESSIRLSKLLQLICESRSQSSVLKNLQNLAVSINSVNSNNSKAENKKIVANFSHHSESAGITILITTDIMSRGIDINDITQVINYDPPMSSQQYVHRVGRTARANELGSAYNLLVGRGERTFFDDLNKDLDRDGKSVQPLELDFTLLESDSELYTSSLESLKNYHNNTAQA

[2] = biological target: T2, Dbp6 M-II E342A (Saccharomyces cerevisiae) (UniProt P53734)
T2 sequence (looked up, limits assumed): T1 sequence (looked up, limits assumed) with A240K, E342A

[3] = biological target: T3, Dbp6 ΔN del24-128 (Saccharomyces cerevisiae) (UniProt P53734)
T3 sequence (looked up, limits assumed): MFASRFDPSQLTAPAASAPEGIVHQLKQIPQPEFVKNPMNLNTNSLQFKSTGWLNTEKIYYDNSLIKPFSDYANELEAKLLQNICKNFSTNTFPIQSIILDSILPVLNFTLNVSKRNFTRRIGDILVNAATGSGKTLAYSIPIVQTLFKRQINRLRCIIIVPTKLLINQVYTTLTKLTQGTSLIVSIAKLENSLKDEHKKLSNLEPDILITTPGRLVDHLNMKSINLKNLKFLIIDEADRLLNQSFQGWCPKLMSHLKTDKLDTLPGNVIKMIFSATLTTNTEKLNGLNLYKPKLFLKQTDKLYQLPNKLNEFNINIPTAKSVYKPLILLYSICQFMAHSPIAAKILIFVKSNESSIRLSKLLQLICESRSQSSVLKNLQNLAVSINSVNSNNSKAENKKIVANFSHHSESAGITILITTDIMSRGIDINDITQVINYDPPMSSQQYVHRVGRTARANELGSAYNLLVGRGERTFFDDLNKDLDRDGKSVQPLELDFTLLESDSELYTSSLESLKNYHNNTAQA

Measured: binding result

GGGAGACCGGAAUUCAUCAUUUCAGUGUAGCGGUUCUGACGUGCAAAUCGAUCGUCGA / CAGAACCGCUACACUGAAAUGAUCAAUUCCGGUCUCCC [ds38/58 hemi-duplex]
binds: [1] | [2] | [3]
